Results are given in words; binding and its absence hold for the method and conditions named. Binding seen in cells or lysates may run through a third protein. Some results given as binding are weak or reduced against the parent protein; the word gives no strength.
How the values were obtained:
Assay in all cases: co-IP; Flag-Neu1 co-expressed with full-length HA-Sirt1 or truncated mutants of SIRT1 in 293T cells; Co-IP with anti-HA antibody
[1] = target: HA-Sirt1 truncated mutant aa 236-496 (UniProt Q96EB6)
[2] = target: HA-Sirt1 truncated mutant aa 1-235 (UniProt Q96EB6)
[3] = target: HA-Sirt1 truncated mutant aa 497-747 (UniProt Q96EB6)

Protein sequences, listed by entry. Tags and fused reporters are not part of them. Lines headed by an entry give the natural chain unless they say otherwise; changes in a name come on top. Residues count along the entry.
HA-Sirt1 truncated mutant aa 1-235 (Q96EB6, residues 1-235): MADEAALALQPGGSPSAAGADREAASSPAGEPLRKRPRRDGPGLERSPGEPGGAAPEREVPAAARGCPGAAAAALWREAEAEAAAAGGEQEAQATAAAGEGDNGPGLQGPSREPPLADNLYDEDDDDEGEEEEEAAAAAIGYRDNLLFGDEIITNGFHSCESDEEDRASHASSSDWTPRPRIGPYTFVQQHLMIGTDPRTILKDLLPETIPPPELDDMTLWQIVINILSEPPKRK
HA-Sirt1 truncated mutant aa 236-496 (Q96EB6, residues 236-496): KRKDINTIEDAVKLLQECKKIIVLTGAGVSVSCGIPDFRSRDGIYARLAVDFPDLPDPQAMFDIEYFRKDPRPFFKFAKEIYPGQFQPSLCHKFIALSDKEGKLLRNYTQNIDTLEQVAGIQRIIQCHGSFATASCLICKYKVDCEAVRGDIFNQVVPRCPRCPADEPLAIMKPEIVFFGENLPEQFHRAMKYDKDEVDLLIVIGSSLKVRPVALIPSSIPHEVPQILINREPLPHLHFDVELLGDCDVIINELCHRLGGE
HA-Sirt1 truncated mutant aa 497-747 (Q96EB6, residues 497-747): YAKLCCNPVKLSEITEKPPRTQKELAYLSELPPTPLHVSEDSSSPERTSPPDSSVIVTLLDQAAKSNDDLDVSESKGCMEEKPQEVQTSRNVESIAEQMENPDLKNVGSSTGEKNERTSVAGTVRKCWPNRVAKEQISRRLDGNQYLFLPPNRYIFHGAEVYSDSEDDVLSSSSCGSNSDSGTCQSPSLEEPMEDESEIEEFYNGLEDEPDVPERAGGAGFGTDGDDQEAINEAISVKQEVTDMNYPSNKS

- binding [1]: binds
- binding [2]: binds
- binding [3]: binds
Substance: Full-length Flag-Neu1 (from UniProt Q99519 48-415)
